Measurements taken from the supplement of paper PMC10849652.
This is one part of the list.

Sequences of proteins named here, by UniProt entry; tags and fusion partners are left off. A change or cut given only in a name is not applied to a line headed by its entry.
UniProt Q9NUD5: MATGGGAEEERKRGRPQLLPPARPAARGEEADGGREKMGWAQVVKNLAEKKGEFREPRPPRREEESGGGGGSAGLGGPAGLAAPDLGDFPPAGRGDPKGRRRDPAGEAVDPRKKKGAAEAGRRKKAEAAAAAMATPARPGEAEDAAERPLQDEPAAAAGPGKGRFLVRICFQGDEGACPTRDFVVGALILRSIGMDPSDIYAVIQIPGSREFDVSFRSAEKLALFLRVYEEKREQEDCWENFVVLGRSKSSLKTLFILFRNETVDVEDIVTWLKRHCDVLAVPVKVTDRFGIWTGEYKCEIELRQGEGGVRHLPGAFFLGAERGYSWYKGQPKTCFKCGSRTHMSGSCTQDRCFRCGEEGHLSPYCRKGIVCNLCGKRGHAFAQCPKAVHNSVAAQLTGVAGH
UniProt P62699: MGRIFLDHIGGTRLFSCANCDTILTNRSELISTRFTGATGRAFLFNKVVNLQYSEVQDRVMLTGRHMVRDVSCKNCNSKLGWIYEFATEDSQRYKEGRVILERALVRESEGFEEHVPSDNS
UniProt Q8N5P1: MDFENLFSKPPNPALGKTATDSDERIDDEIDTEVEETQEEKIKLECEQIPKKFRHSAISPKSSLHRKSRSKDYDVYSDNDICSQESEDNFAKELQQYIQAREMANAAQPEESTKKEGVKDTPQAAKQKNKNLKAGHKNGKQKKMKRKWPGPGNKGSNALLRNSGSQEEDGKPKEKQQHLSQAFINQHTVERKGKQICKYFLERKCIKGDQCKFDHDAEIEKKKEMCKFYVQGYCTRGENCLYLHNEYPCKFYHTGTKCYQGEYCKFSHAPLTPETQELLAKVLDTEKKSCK
UniProt O43670: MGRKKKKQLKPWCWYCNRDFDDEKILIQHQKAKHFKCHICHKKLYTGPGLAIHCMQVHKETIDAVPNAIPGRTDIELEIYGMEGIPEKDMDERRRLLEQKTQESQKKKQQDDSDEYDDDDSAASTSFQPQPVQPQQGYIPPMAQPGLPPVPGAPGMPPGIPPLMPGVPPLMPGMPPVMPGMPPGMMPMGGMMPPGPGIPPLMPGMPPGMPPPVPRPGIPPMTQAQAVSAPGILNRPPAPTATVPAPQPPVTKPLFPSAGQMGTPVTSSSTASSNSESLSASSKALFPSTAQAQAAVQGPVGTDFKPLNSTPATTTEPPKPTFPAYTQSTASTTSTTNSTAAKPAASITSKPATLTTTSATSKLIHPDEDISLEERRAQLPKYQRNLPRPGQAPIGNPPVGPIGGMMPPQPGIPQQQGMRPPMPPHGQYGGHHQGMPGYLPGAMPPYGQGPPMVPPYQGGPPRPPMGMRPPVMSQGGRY
UniProt Q9NQH7: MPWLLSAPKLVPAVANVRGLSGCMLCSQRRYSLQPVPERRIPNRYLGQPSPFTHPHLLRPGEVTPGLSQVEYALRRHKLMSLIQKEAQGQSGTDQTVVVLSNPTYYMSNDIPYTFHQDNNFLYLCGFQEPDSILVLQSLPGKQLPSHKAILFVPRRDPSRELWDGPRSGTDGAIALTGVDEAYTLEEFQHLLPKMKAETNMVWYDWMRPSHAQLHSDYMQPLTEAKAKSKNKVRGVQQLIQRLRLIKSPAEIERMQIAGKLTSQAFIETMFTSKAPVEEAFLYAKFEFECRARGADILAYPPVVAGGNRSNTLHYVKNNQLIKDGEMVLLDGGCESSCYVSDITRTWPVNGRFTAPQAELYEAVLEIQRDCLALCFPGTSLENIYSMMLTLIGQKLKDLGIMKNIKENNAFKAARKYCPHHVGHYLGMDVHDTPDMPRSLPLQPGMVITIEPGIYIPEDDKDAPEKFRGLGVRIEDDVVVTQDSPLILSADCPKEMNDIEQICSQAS
UniProt P61981: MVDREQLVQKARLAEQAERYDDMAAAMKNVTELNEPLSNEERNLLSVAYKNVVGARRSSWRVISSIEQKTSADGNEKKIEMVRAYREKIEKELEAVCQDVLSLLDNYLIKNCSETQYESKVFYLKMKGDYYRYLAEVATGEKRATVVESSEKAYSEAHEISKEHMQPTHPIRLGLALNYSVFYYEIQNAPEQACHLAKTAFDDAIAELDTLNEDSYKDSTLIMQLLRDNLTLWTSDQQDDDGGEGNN
UniProt P52747: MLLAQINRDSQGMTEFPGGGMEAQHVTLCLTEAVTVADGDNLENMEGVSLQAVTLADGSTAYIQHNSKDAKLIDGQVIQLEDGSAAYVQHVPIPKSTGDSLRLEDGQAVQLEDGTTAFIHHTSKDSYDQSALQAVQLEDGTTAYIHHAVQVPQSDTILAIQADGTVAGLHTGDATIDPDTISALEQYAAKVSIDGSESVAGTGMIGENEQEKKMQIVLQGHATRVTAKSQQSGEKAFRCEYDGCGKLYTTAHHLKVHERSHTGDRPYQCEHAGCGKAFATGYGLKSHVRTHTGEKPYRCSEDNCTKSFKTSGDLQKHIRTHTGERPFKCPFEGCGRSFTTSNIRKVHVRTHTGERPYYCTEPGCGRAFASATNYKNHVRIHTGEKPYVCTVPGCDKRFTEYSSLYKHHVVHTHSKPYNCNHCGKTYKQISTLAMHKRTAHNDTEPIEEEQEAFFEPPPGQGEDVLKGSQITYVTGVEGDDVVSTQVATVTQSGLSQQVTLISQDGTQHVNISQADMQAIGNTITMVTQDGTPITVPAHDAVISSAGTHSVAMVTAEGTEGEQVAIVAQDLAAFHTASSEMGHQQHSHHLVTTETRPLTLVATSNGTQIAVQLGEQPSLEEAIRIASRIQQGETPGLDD
UniProt Q9NQW7: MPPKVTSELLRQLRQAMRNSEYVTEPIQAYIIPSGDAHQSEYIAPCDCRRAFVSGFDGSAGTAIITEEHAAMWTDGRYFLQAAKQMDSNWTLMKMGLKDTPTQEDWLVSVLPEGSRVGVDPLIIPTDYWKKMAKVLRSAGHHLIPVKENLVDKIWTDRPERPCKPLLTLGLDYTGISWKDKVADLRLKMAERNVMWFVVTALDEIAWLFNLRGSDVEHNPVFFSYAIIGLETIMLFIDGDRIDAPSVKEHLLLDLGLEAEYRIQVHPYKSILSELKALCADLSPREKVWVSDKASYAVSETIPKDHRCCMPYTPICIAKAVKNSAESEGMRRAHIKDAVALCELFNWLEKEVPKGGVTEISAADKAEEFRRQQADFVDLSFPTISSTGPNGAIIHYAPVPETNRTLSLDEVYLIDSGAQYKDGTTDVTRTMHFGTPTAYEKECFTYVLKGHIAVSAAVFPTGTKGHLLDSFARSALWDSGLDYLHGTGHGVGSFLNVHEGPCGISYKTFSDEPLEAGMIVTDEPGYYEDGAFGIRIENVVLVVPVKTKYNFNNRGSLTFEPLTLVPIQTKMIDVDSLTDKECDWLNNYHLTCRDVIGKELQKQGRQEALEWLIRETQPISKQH

Legend:
Test in all cases: log2 fold change, soluble protein after heating vs DMSO (PISA); higher = thermal stabilisation; K562 cells, 10 uM, 30 min; active = over 0.2 and 3.5 SD of the protein, either way, in both replicates (recomputed)
[1] = compound: COC1=CC=C(C=C1)CN2C=CC3=C2C=C(C=C3)C(=O)NO
In short: (§1)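 Quantification of soluble protein used TMTpro 16plex LC-MS/MS, with channel sums equalised. Samples were the supernatant after 21,000xg for 90 min of pooled aliquots from K562 cells (2×10^6 cells/mL) treated with 10 μM compound for 30 min, heated for 3 min over 48°C-58°C, and extracted in PBS with 0.5% NP-40 at 4°C. Values, from duplicates, describe thermal stability against control samples on a log2 fold-change scale.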

filanesib = compound: CON(C)C(=O)N1N=C(c2cc(F)ccc2F)S[C@@]1(CCCN)c1ccccc1 [filanesib]
In short: as §1

zotarolimus = compound: CO[C@H]1C[C@@H]2CC[C@@H](C)[C@@](O)(O2)C(=O)C(=O)N2CCCC[C@H]2C(=O)O[C@H]([C@H](C)C[C@@H]2CC[C@H](n3cnnn3)[C@H](OC)C2)CC(=O)[C@H](C)/C=C(\C)[C@@H](O)[C@@H](OC)C(=O)[C@H](C)C[C@H](C)/C=C/C=C/C=C/1C [zotarolimus]
In short: as §1

idasanutlin = compound: COc1cc(C(=O)O)ccc1NC(=O)[C@@H]1N[C@@H](CC(C)(C)C)[C@](C#N)(c2ccc(Cl)cc2F)[C@H]1c1cccc(Cl)c1F [idasanutlin]
In short: as §1

alisertib = compound: COc1cc(Nc2ncc3c(n2)-c2ccc(Cl)cc2C(c2c(F)cccc2OC)=NC3)ccc1C(=O)O [alisertib]
In short: as §1

[2] = compound: COc1cc2nc(-c3cc(F)ccc3O)nc(N[C@@H]3CNC[C@H]3C(C)(C)O)c2cc1OC
In short: as §1

gefitinib = compound: COc1cc2ncnc(Nc3ccc(F)c(Cl)c3)c2cc1OCCCN1CCOCC1 [gefitinib]
In short: as §1

[3] = compound: COc1cccc2cc(-c3nc([C@H]4CC[C@H](C(=O)O)CC4)n4ncnc(N)c34)[nH]c12
In short: as §1

lapatinib = compound: CS(=O)(=O)CCNCc1ccc(-c2ccc3ncnc(Nc4ccc(OCc5cccc(F)c5)c(Cl)c4)c3c2)o1 [lapatinib]
In short: as §1

pictilisib = compound: CS(=O)(=O)N1CCN(Cc2cc3nc(-c4cccc5[nH]ncc45)nc(N4CCOCC4)c3s2)CC1 [pictilisib]
In short: as §1

[4] = compound: CS(=O)(=O)c1ccc(-c2cnc(N)c(C(=O)Nc3ccccc3)n2)cc1
In short: as §1

crizotinib = compound: C[C@@H](Oc1cc(-c2cnn(C3CCNCC3)c2)cnc1N)c1c(Cl)ccc(F)c1Cl [crizotinib]
In short: as §1

[5] = compound: C[C@@H]1COCCN1C2=NC(=NC(=C2)C3(CC3)S(=O)(=O)C)C4=C5C=CNC5=CC=C4
In short: as §1

[6] = compound: C[C@H](C1=CC=C(C=C1)C(=O)NC2=C3C=CNC3=NC=C2)N
In short: as §1

duvelisib = compound: C[C@H](Nc1ncnc2nc[nH]c12)c1cc2cccc(Cl)c2c(=O)n1-c1ccccc1 [duvelisib]
In short: as §1

gandotinib = compound: Cc1cc(Nc2cc(CN3CCOCC3)c3nc(C)c(Cc4ccc(Cl)cc4F)n3n2)n[nH]1 [gandotinib]
In short: as §1

tozasertib = compound: Cc1cc(Nc2cc(N3CCN(C)CC3)nc(Sc3ccc(NC(=O)C4CC4)cc3)n2)n[nH]1 [tozasertib]
In short: as §1

[7] = compound: Cc1cc(SCc2sc(-c3ccc(C(F)(F)F)cc3)nc2C)ccc1OCC(=O)O
In short: as §1

doramapimod = compound: Cc1ccc(-n2nc(C(C)(C)C)cc2NC(=O)Nc2ccc(OCCN3CCOCC3)c3ccccc23)cc1 [doramapimod]
In short: as §1

ispinesib = compound: Cc1ccc(C(=O)N(CCCN)[C@@H](c2nc3cc(Cl)ccc3c(=O)n2Cc2ccccc2)C(C)C)cc1 [ispinesib]
In short: as §1

Measured: log2 fold change

ZCCHC3 (UniProt Q9NUD5)
inactive: [1] 0.112 | filanesib 0.162 | zotarolimus 0.017 | idasanutlin 0.229 | alisertib -0.025 | [2] -0.038 | gefitinib -0.047 | [3] -0.116 | lapatinib 0.081 | pictilisib -0.135 | [4] -0.109 | crizotinib 0.009 | [5] -0.31 | [6] 0.294 | duvelisib -0.103 | gandotinib 0.199 | tozasertib 0.027 | [7] -0.022 | doramapimod -0.058 | ispinesib -0.082

YPEL5 (UniProt P62699)
active: idasanutlin 0.491
inactive: [1] -0.269 | filanesib 0.413 | zotarolimus 0.05 | alisertib 0.086 | [2] 0.096 | gefitinib -0.239 | [3] -0.142 | lapatinib -0.113 | pictilisib 0.172 | [4] 0.152 | crizotinib 0.019 | [5] -0.079 | [6] 0.163 | gandotinib -0.095 | [7] 0.098 | doramapimod 0.039 | ispinesib -0.039

ZC3H8 (UniProt Q8N5P1)
inactive: [1] -0.128 | filanesib 0.191 | zotarolimus 0.029 | idasanutlin 0.109 | alisertib -0.082 | [2] 0.05 | gefitinib 0.021 | [3] -0.02 | lapatinib 0 | pictilisib -0.007 | [4] 0 | crizotinib 0.089 | [5] -0.151 | [6] 0.218 | gandotinib 0.15 | [7] -0.039 | doramapimod 0.038 | ispinesib -0.016

ZNF207 isoform 4 (UniProt O43670)
inactive: [1] 0.07 | filanesib -0.003 | zotarolimus 0.002 | idasanutlin 0.02 | alisertib -0.014 | [2] -0.073 | gefitinib -0.013 | [3] 0.079 | lapatinib -0.04 | pictilisib -0.052 | [4] -0.006 | crizotinib -0.019 | [5] 0.005 | [6] -0.084 | duvelisib -0.058 | gandotinib 0.117 | tozasertib 0.002 | [7] -0.01 | doramapimod -0.027 | ispinesib 0.049

XPNPEP3 (UniProt Q9NQH7)
inactive: [1] -0.12 | filanesib -0.082 | zotarolimus -0.021 | idasanutlin -0.032 | alisertib -0.011 | [2] 0.027 | gefitinib -0.002 | [3] 0.078 | lapatinib -0.024 | pictilisib 0.027 | [4] 0.06 | crizotinib -0.013 | [5] 0.011 | [6] -0.001 | gandotinib -0.033 | [7] 0.034 | doramapimod 0.065 | ispinesib -0.046

YWHAG (UniProt P61981)
inactive: [1] 0 | filanesib -0.019 | zotarolimus 0.022 | idasanutlin 0.03 | alisertib -0.074 | [2] -0.045 | gefitinib 0.002 | [3] -0.047 | lapatinib -0.008 | pictilisib 0.014 | [4] -0.012 | crizotinib 0.035 | [5] -0.033 | [6] -0.058 | duvelisib -0.079 | gandotinib 0.045 | tozasertib 0.023 | [7] -0.016 | doramapimod -0.027 | ispinesib 0.09

ZNF143 (UniProt P52747)
inactive: [1] -0.035 | filanesib 0.024 | zotarolimus 0.067 | idasanutlin 0.07 | alisertib -0.05 | [2] -0.19 | gefitinib -0.098 | [3] 0.05 | lapatinib -0.011 | pictilisib -0.06 | [4] -0.014 | crizotinib -0.06 | [5] -0.018 | [6] -0.118 | gandotinib 0.025 | [7] 0.028 | doramapimod 0.01 | ispinesib -0.038

XPNPEP1 isoform 3 (UniProt Q9NQW7)
inactive: [1] 0.006 | filanesib -0.121 | zotarolimus 0.026 | idasanutlin -0.023 | alisertib 0.028 | [2] -0.009 | gefitinib 0.004 | [3] 0.038 | lapatinib 0.01 | pictilisib 0.068 | [4] 0.069 | crizotinib -0.023 | [5] 0.098 | [6] -0.076 | gandotinib -0.053 | [7] 0.007 | doramapimod 0.028 | ispinesib -0.015
